Assay results reported in paper PMC3637500.
Results are given in words; binding and its absence hold for the method and conditions named. In cells and extracts the contact can be indirect. Where a sequence is shown, tags or fusion partners need not be part of it.

Target: T1, GST-PTP1B-D181A (substrate-trapping mutant of PTP1B, GST fusion protein) (mouse) (UniProt P35821)
T1 sequence: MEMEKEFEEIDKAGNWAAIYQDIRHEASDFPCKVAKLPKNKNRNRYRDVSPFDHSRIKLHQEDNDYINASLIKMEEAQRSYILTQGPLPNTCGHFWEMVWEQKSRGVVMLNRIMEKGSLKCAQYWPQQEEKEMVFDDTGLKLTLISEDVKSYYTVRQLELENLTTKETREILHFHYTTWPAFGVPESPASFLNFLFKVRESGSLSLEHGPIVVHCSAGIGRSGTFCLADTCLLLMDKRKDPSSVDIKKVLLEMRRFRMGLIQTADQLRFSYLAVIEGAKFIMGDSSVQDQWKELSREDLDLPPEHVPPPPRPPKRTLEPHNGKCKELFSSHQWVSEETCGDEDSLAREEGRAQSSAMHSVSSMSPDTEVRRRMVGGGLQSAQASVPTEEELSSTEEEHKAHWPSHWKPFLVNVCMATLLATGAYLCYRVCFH
Test: pull-down; substrate trapping: GST-PTP1B-WT or GST-PTP1B-D181A bound on glutathione beads; lysates of retinal ex vivo explants or HEK-293T cells treated with 1 mM pervanadate for 30 min; 2 h at 4°C in substrate-trapping buffer; immunoblot with anti-Gab1 or anti-Myc; only the target purified

binding: no binding
Substance: Myc-tagged ΔPH-Gab1 (Gab1 with the PH domain deleted) (mouse) (domain or fragment)
